# Source: patent publication US20230181662A1, “USES OF ANTRODIA CINNAMOMEA EXTRACT IN MANUFACTURING PRODUCTS FOR REDUCING EXPRESSION AND TREATING ASSOCIATED DISEASES OF ANGIOTENSIN CONVERTING ENZYME 2” (priority 2020, published 2023)
# The chains behind the UniProt entries cited, without tags or fusion partners. Residues count along the entry.
# UniProt Q9BYF1, 18-805, species assumed: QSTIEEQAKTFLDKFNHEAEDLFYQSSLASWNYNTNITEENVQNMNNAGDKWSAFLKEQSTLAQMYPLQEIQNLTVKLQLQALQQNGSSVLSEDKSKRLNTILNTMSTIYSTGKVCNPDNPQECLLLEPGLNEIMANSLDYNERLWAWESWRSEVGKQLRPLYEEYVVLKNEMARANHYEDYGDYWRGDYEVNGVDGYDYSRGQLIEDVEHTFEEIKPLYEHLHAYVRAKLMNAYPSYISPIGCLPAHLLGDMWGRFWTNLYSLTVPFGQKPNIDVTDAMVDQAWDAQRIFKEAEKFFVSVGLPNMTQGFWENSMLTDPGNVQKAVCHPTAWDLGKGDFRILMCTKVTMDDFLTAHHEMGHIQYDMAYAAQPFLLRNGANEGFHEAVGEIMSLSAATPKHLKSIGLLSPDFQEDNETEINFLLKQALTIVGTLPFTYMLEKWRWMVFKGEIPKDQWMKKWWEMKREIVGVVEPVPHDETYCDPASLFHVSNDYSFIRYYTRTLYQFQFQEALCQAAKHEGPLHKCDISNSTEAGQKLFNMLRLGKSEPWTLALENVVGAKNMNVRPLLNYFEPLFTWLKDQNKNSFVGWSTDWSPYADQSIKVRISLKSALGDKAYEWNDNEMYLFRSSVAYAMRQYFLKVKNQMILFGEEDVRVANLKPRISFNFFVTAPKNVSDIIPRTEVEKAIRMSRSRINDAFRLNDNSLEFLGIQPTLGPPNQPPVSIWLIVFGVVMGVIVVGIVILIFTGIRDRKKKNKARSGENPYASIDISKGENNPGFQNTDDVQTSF
# Some results were stated once for a whole list of compounds, not compound by compound.
# Target: ACE-2 (Homo sapiens, UniProt Q9BYF1)
# Experiment: ACE-2 enzyme activity assay (MCA based peptide substrate, fluorescence)
# Assay type: biochemical
# Conditions: 20 μg/mL each compound
substance,measurement,value
Antcin K,inhibition of ACE-2 enzyme activity,more than 30%
